# Measurements taken from PMC11642917.
# The chains behind the UniProt entries cited, without tags or fusion partners.
# UniProt Q17551: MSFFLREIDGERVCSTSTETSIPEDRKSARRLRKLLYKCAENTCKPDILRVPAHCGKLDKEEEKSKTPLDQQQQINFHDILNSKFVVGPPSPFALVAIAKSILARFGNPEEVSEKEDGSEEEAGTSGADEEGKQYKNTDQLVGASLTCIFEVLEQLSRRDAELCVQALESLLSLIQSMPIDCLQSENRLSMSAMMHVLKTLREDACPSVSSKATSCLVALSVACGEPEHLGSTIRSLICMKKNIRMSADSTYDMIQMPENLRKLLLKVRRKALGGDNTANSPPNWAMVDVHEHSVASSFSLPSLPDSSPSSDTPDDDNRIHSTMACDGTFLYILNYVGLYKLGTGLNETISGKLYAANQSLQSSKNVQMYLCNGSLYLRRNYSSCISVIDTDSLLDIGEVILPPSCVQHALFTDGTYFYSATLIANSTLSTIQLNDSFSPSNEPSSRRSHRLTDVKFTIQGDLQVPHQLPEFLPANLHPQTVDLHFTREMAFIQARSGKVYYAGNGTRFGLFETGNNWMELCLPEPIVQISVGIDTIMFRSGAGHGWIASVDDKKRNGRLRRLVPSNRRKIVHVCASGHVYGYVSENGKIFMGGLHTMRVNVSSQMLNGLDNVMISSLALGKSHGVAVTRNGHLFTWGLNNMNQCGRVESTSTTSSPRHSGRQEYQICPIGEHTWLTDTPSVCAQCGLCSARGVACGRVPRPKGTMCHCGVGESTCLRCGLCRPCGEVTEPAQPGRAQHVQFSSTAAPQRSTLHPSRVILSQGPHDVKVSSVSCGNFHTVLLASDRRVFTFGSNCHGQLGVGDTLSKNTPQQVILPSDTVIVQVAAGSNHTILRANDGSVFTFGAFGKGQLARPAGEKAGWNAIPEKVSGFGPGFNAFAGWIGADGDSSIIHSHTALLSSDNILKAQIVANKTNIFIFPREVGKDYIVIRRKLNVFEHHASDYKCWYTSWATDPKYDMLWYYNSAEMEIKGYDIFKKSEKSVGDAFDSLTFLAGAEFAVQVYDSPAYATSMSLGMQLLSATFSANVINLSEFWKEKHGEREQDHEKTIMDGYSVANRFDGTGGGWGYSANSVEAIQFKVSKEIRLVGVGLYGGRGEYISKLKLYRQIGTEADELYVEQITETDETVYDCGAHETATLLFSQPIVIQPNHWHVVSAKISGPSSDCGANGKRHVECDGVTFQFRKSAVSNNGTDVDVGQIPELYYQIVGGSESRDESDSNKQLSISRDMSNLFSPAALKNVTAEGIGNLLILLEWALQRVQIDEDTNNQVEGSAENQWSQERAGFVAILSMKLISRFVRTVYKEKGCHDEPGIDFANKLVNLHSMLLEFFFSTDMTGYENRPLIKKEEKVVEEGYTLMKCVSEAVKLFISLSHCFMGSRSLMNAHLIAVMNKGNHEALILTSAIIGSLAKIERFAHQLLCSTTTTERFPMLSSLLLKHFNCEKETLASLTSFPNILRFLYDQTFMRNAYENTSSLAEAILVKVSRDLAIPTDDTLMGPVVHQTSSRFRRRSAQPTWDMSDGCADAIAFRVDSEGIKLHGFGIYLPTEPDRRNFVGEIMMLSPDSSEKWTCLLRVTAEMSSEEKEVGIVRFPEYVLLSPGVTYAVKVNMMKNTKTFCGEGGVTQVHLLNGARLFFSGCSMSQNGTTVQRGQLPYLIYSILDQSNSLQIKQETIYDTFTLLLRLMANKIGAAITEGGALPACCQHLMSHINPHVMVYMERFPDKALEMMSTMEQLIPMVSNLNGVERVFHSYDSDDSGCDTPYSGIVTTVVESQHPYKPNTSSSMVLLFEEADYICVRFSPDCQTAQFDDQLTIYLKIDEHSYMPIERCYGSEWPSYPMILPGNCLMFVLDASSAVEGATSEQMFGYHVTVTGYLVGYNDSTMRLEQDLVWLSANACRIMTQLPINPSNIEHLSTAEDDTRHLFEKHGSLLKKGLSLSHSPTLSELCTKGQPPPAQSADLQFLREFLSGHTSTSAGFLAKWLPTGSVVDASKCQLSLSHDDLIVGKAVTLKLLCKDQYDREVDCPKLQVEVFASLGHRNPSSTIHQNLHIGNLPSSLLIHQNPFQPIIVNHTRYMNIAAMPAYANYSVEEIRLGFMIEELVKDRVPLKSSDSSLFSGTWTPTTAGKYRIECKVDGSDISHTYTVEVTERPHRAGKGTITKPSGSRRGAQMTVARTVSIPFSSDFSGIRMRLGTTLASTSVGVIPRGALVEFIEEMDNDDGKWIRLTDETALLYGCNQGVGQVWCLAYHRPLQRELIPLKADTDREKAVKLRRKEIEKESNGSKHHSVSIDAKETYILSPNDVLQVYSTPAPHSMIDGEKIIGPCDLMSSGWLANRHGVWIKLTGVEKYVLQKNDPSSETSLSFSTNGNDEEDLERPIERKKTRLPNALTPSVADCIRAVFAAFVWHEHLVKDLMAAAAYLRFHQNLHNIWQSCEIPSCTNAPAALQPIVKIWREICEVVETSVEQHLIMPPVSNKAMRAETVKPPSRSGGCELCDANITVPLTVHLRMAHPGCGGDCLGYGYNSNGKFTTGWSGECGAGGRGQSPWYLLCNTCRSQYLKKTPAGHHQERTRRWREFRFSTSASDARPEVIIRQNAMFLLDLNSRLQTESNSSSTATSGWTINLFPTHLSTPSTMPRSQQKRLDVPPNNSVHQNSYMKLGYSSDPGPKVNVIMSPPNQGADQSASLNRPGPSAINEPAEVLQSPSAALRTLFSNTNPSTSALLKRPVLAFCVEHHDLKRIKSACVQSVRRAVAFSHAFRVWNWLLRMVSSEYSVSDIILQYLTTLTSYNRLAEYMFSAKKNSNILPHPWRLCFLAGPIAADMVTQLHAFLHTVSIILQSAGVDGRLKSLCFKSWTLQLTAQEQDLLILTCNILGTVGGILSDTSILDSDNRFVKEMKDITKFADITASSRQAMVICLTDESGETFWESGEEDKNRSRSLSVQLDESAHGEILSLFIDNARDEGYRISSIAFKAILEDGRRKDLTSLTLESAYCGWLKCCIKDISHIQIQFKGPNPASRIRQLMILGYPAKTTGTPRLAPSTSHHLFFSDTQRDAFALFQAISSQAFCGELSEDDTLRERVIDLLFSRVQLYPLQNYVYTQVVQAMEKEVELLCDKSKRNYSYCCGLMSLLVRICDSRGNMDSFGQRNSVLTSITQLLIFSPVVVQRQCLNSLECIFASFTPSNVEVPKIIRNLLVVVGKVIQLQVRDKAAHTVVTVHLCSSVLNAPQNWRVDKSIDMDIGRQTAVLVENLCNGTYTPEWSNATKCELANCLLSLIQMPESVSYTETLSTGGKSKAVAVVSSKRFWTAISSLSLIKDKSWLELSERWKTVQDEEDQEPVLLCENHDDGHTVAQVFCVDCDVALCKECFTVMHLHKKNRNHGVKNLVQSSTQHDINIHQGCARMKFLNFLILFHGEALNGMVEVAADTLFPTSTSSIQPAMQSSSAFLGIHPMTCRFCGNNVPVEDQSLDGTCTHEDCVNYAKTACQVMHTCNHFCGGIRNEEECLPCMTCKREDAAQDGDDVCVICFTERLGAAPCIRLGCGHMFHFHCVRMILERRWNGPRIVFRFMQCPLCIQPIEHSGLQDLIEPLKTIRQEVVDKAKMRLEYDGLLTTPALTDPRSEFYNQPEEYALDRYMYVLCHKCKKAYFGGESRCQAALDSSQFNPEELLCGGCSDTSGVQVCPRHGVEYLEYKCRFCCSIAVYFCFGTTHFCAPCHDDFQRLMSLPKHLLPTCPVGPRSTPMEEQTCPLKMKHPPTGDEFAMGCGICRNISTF
# Results are given in words; binding and its absence hold for the method and conditions named. Binding seen in cells or lysates may run through a third protein. These calls come from enrichment with a bait or labelling near it, and not all partners need be listed.
# What was measured:
# [1] = target: GS::RPM-1 (C. elegans) (UniProt Q17551); experiment: affinity purification with mass spectrometry; GS-tagged RPM-1 bait captured on IgG-coupled Dynabeads from whole-animal lysates of mixed-stage C. elegans (80 mg total protein, 500 uL beads, 4°C, 4 hours; various detergent conditions); SDS-PAGE, in-gel trypsin digest, LC-MS/MS; GS::GFP negative control; 7 independent experiments; hit = 1.5x or greater total spectra over GS::GFP
# [2] = target: GS::RPM-1 ligase-dead (LD) (C. elegans) (UniProt Q17551); experiment: as above
binder,measurement,setting,value
"PPM-2 (protein, UniProt P49596 1-356) MGQTLSEPVTKKESASCANENYLVGSSCMQGWRVDMEDAHTHLLSLPDDPKCAFFAVYDGHGGSKVSQYSGINLHKKVVAQKEFSEGNMKEAIEKGFLELDQQMRVDEETKDDVSGTTAVVVLIKEGDVYCGNAGDSRAVSSVVGEARPLSFDHKPSHETEARRIIAAGGWVEFNRVNGNLALSRALGDFAFKNCDTKPAEEQIVTAFPDVITDKLTPDHEFIVLACDGIWDVMTNQEVVDFVREKLAEKRDPQSICEELLTRCLAPDCQMGGLGCDNMTVVLVGLLHGQSPDTLFTKCARPAVFTGVNNEDGDQNQIQQDISRVINNFDGEQRVNAANQEEEEDDNEPAPANFQV",binding,[1],binds
same,binding,[2],binds
